In US20190388362A1, “PHARMACEUTICAL COMPOSITION FOR TREATING ORAL PRECANCER AND METHOD FOR PREDICTING OR DIAGNOSING ORAL PRECANCER OR ORAL CANCER” (MET Life Sciences Co., Ltd., priority 2017, published 2019):
For at least one compound, name, drawing or mass did not settle the structure.

The chains behind the UniProt entries cited, without tags or fusion partners. Where a name states a change or a piece, a line headed by the entry shows the natural chain unless it says otherwise.
UniProt P49841: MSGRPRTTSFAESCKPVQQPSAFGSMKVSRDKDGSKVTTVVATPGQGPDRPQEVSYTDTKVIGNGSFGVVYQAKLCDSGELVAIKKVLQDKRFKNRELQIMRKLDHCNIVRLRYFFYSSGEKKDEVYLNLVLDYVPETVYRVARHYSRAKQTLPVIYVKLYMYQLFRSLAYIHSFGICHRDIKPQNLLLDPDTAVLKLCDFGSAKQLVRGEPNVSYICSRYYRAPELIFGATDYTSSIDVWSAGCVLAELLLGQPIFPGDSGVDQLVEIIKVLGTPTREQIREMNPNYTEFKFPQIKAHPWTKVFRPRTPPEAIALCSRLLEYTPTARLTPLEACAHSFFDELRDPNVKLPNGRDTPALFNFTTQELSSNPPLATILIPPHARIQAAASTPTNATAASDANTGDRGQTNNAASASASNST

Molecular target: recombinant GSK3β (Homo sapiens, UniProt P49841)
Test: Surface plasma resonance (SPR) analysis on immobilized recombinant GSK3β
Type: binding
Conditions: GSK3β immobilized on sensor chip, read-out: equilibrium dissociation constant KD
Description: Surface plasma resonance (SPR) analysis was performed to confirm whether niclosamide directly binds to GSK3. SPR was conducted using the ProteOn™ XPR36 Protein Interaction Array system (Bio-Rad Laboratories, Inc., CA, USA), and purified recombinant GSK3β, was immobilized to a ProteOn GLH sensor chip. Niclosamide or 19-mer wild type Axin peptide or mutant peptide (VEPQKAAEEAIHRAEAVQR, mutation underlined) were diluted by phosphate-buffered saline+Tween 20+1% DMSO at different concentrations and then flowed over the chip at a rate of 100 μl/min. The results thereof were analyzed by ProteOn Manager Software 2.0 using the standard Langmuir models for fitting kinetic data. The rate of complex formation was represented by the association constant (ka, in the unit of M-1s-1), and the rate of complex decay was represented by the dissociation constant (kd, in the unit of s-1), as given by Equation 1 below.
A high-affinity interaction is represented by a low dissociation constant, and rapid recognition and binding with interactants (rapid “on rate,” or high ka) and the stability of complex formation (slow “off rate,” or low kd) are as shown in the following equation: KD=kd/ka.

SMILES: CC[C@H](C)[C@H](NC(=O)[C@H](CC(C)C)NC(=O)[C@H](CCC(=O)O)NC(=O)[C@H](CCC(=O)O)NC(=O)[C@H](C)NC(=O)[C@H](Cc1ccccc1)NC(=O)[C@H](CCCCN)NC(=O)[C@H](CCC(N)=O)NC(=O)[C@@H]1CCCN1C(=O)[C@H](CCC(=O)O)NC(=O)[C@@H](N)C(C)C)C(=O)N[C@@H](Cc1c[nH]cn1)C(=O)N[C@@H](CCCNC(=N)N)C(=O)N[C@@H](CC(C)C)C(=O)N[C@@H](CCC(=O)O)C(=O)N[C@@H](C)C(=O)N[C@H](C(=O)N[C@@H](CCC(N)=O)C(=O)N[C@@H](CCCNC(=N)N)C(=O)O)C(C)C [wild type Axin peptide]
- Kd: 35 µM
